For 17 compounds, survivor count and T/C results are on record in PubChem BioAssay AID288 (DTP/NCI, 2004).

The list shows only some results of the screen, not a fair sample: it gathers tests that were run many times, whatever their T/C, doses with no T/C, and many T/C values between a quarter and a half above the control. Further doses and runs are listed elsewhere. T/C is the treated group as % of the vehicle group. Schedule codes are those of the source, read here as Q, the interval in days (D) or hours (H), X, the number of doses. Some entries give survivors of the animals treated and no T/C: the source holds a T/C of zero for them, seemingly a mark for toxic or unscored doses. Some doses without a T/C left all or most animals alive at the check, yet need not have been tolerated: survival well below the control is almost never listed, so the zero probably covers shortened survival too. Survivors were counted at the toxicity check, usually on the fifth day, unless a day is given; later deaths do not show. For survival time, this PubChem deposit counts one and a half times the control or more as active, and values a quarter to a half above the control carry no call in these data; other NCI protocols may use other cut-offs. Some T/C values carry the count of animals alive at the toxicity check (mostly the fifth day); where none is given, no animal had died by that day. Numbered stars: 1 amine (or outer) side, 2 acyl side, 3 side chain; on linkers, the order of the positions; unused ones are H or OH. Bridge positions count the residues as written; N and C are the ends. Square brackets hold non-standard residues; d marks the D form. Peptide text beside a SMILES is read from it. I, II: the chains in the order shown. * marks the point of attachment. ξ: configuration not given here. Quinaldoyl(3-OH,6-OMe) = COc1ccc2nc(C(=O)*)c(O)cc2c1; X1 = CCC(=O)OC1CC=NN([*:1])C1C(=O)[*:2]; X2 = CC(=O)OC1CC=NN([*:1])C1C(=O)[*:2]; ξNMeVal(3-OH) = CNC(C(=O)O)C(C)(C)O; Sar = CNCC(=O)O

The test system of the experiment is BDF1 mice, M5076 sarcoma s.c., survival/tumor T/C. The experiment is described as follows: NCI In Vivo Anticancer Drug Screen. Data for tumor model Sarcoma M5076 (subcutaneous) in B6D2F1 (BDF1) mice. On the procedure: The antitumor activity of compounds was measured in mice bearing transplantable tumors. Survival or tumor size were measured and the results are expressed as the measurement made in the treated group (T) divided by the measurement made in the vehicle treated control group (C). The tumor model used in this assay is Sarcoma M5076 (subcutaneous) in B6D2F1 (BDF1) mice

With `CCC(=O)OC1CC=NN2C(=O)C(NC(=O)c3nc4ccc(OC)cc4cc3O)COC(=O)C(C(C)(C)O)N(C)C(=O)CN(C)C(=O)CNC(=O)C3C(OC(C)=O)CC=NN3C(=O)C(NC(=O)c3nc4ccc(OC)cc4cc3O)COC(=O)C(C(C)(C)O)N(C)C(=O)CN(C)C(=O)CNC(=O)C12` (stereo not given) (I: {Quinaldoyl(3-OH,6-OMe)}-S[X1]G[Sar][ξNMeVal(3-OH)] / II: {Quinaldoyl(3-OH,6-OMe)}-S[X2]G[Sar][ξNMeVal(3-OH)]; ester I:1-II:C, I:C-II:1; configuration not given here), the survivor count is given as 2 of 10 on day 9 (T/C endpoint: median survival time, dose: 37.5 micrograms/kg/injection, schedule: Q01DX009 (ip), vehicle: Klucel (hydroxypropylcellulose) (HPC), higher T/C = longer survival); 0 of 10 on day 9 (T/C endpoint: median survival time, dose: 75.0 micrograms/kg/injection, schedule: Q01DX009 (ip), vehicle: Klucel (hydroxypropylcellulose) (HPC), higher T/C = longer survival); 0 of 10 on day 9 (T/C endpoint: median survival time, dose: 150.0 micrograms/kg/injection, schedule: Q01DX009 (ip), vehicle: Klucel (hydroxypropylcellulose) (HPC), higher T/C = longer survival); 0 of 10 on day 9 (T/C endpoint: median survival time, dose: 300.0 micrograms/kg/injection, schedule: Q01DX009 (ip), vehicle: Klucel (hydroxypropylcellulose) (HPC), higher T/C = longer survival); 1 of 10 on day 20 (T/C endpoint: median tumor weight (est.), dose: 37.5 micrograms/kg/injection, schedule: Q01DX009 (ip), vehicle: DMSO, higher T/C = larger tumour); 0 of 10 on day 20 (T/C endpoint: median tumor weight (est.), dose: 75.0 micrograms/kg/injection, schedule: Q01DX009 (ip), vehicle: DMSO, higher T/C = larger tumour). Further, the survivor count is, setting by setting: (T/C endpoint: median tumor weight (est.), dose: 150.0 micrograms/kg/injection, schedule: Q01DX009 (ip), vehicle: DMSO, higher T/C = larger tumour) 0 of 10 on day 20; (T/C endpoint: median tumor weight (est.), dose: 300.0 micrograms/kg/injection, schedule: Q01DX009 (ip), vehicle: DMSO, higher T/C = larger tumour) 0 of 10 on day 20.

Consider `OC(C1CO1)C(O)C1CO1` (stereo not given), for which the survivor count is given as 0 of 10 on day 22 (T/C endpoint: mean tumor weight, dose: 8.0 mg/kg/injection, schedule: Q02DX011 (ip), vehicle: saline, higher T/C = larger tumour); 0 of 10 on day 9 (T/C endpoint: median survival time, dose: 8.0 mg/kg/injection, schedule: Q01DX009 (ip), vehicle: saline, higher T/C = longer survival); 0 of 10 on day 9 (T/C endpoint: median survival time, dose: 16.0 mg/kg/injection, schedule: Q01DX009 (ip), vehicle: saline, higher T/C = longer survival); 6 of 10 on day 20 (T/C endpoint: median tumor weight (est.), dose: 4.0 mg/kg/injection, schedule: Q01DX009 (ip), vehicle: saline, higher T/C = larger tumour); 0 of 10 on day 20 (T/C endpoint: median tumor weight (est.), dose: 8.0 mg/kg/injection, schedule: Q01DX009 (ip), vehicle: saline, higher T/C = larger tumour); 0 of 10 on day 22 (T/C endpoint: median tumor weight (est.), dose: 8.0 mg/kg/injection, schedule: Q02DX011 (ip), vehicle: saline, higher T/C = larger tumour). Further, for the setting “T/C endpoint: median tumor weight (est.), dose: 16.0 mg/kg/injection, schedule: Q01DX009 (ip), vehicle: saline, higher T/C = larger tumour”, the survivor count is recorded as 0 of 10 on day 20. Also, the T/C (T/C endpoint: median survival time, dose: 4.0 mg/kg/injection, schedule: Q01DX009 (ip), vehicle: saline, higher T/C = longer survival) was 144 % of control.

Turning to `CN(C)/N=N/c1nc[nH]c1C(N)=O`, the T/C reads like this: (T/C endpoint: median survival time, dose: 54.0 mg/kg/injection, schedule: Q04DX006 (ip), vehicle: saline with Tween-80, higher T/C = longer survival) 129 % of control; (T/C endpoint: median survival time, dose: 108.0 mg/kg/injection, schedule: Q04DX006 (ip), vehicle: saline with Tween-80, higher T/C = longer survival) 138 % of control.

Regarding `O=C1C2CC(Cl)C(SSC3CC4C(=O)N(SC(Cl)(Cl)C(Cl)Cl)C(=O)C4CC3Cl)CC2C(=O)N1SC(Cl)(Cl)C(Cl)Cl` (stereo not given), the survivor count by setting is: (T/C endpoint: median survival time, dose: 12.5 mg/kg/injection, schedule: Q01DX009 (ip), vehicle: saline with Tween-80, higher T/C = longer survival) 9 of 10 on day 9; (T/C endpoint: median survival time, dose: 25.0 mg/kg/injection, schedule: Q01DX009 (ip), vehicle: saline with Tween-80, higher T/C = longer survival) 8 of 10 on day 9; (T/C endpoint: median survival time, dose: 50.0 mg/kg/injection, schedule: Q01DX009 (ip), vehicle: saline with Tween-80, higher T/C = longer survival) 0 of 10 on day 9.

With `CN(C)c1nc(N(C)C)nc(N(C)C)n1`, where the note is “T/C endpoint: median survival time, dose: 88.0 mg/kg/injection, schedule: Q02DX033 (ip), vehicle: saline with Tween-80, higher T/C = longer survival”, the T/C was 143 % of control. Also, the survivor count (T/C endpoint: median tumor weight (est.), dose: 240.0 mg/kg/injection, schedule: Q02DX011 (ip), vehicle: saline with Tween-80, higher T/C = larger tumour) was 1 of 10 on day 22.

With `Nc1ccc(N2N=C(N3CCCC3)CC2=O)cc1`, the T/C (T/C endpoint: median tumor weight (est.), dose: 100.0 mg/kg/injection, schedule: Q01DX009 (ip), vehicle: saline with Tween-80, evaluated on day 20, higher T/C = larger tumour) is 127 % of control.

On to `Cc1ccc(S(=O)(=O)O)cc1.Cc1ccc(S(=O)(=O)O)cc1.[NH-]C1CCCCC1[NH-].[Pt+2]`, for which the T/C (T/C endpoint: median survival time, dose: 0.5 mg/kg/injection, schedule: Q02DX032 (ip), vehicle: dextrose, higher T/C = longer survival) is 125 % of control; the T/C (T/C endpoint: median survival time, dose: 1.0 mg/kg/injection, schedule: Q02DX032 (ip), vehicle: dextrose, higher T/C = longer survival) was 144 % of control; the T/C (T/C endpoint: median survival time, dose: 2.0 mg/kg/injection, schedule: Q02DX032 (ip), vehicle: dextrose, higher T/C = longer survival) was 138 % of control.

As to `Cc1c2ccncc2c(C)c2c1[nH]c1ccccc12`, the survivor count runs as follows: (T/C endpoint: mean tumor weight, dose: 25.0 mg/kg/injection, schedule: Q02DX011 (ip), vehicle: water, higher T/C = larger tumour) 0 of 10 on day 22; (T/C endpoint: mean tumor weight, dose: 50.0 mg/kg/injection, schedule: Q02DX011 (ip), vehicle: water, higher T/C = larger tumour) 0 of 10 on day 22; (T/C endpoint: mean tumor weight, dose: 100.0 mg/kg/injection, schedule: Q02DX011 (ip), vehicle: water, higher T/C = larger tumour) 0 of 10 on day 22; (T/C endpoint: median tumor weight (est.), dose: 25.0 mg/kg/injection, schedule: Q02DX011 (ip), vehicle: water, higher T/C = larger tumour) 0 of 10 on day 22; (T/C endpoint: median tumor weight (est.), dose: 50.0 mg/kg/injection, schedule: Q02DX011 (ip), vehicle: water, higher T/C = larger tumour) 0 of 10 on day 22; (T/C endpoint: median tumor weight (est.), dose: 100.0 mg/kg/injection, schedule: Q02DX011 (ip), vehicle: water, higher T/C = larger tumour) 0 of 10 on day 22.

Turning to `Nc1nnc[se]1`, for the setting “T/C endpoint: median survival time, dose: 400.0 mg/kg/injection, schedule: Q04DX003 (ip), vehicle: saline with Tween-80, higher T/C = longer survival”, the T/C was 130 % of control [7 of 10 alive on day 57].

As to `C1CN1c1nc(N2CC2)nc(N2CC2)n1`, under “T/C endpoint: median survival time, dose: 0.5 mg/kg/injection, schedule: Q02DX011 (ip), vehicle: saline, higher T/C = longer survival”, the T/C is 140 % of control. For the same compound, the survivor count (T/C endpoint: median survival time, dose: 2.0 mg/kg/injection, schedule: Q02DX011 (ip), vehicle: saline, higher T/C = longer survival) is listed as 0 of 10 on day 16.

For the compound `COC1=C(C)C(=O)C2=C(C1=O)C(CO)N1C(C#N)C3CC4C(C1C2N1CCOC41)N3C` (stereo not given), the survivor count is recorded as 0 of 10 on day 9 (T/C endpoint: median survival time, dose: 1.0 mg/kg/injection, schedule: Q01DX009 (ip), vehicle: saline + alcohol, higher T/C = longer survival) and 0 of 10 on day 20 (T/C endpoint: median tumor weight (est.), dose: 1.0 mg/kg/injection, schedule: Q01DX009 (ip), vehicle: saline + alcohol, higher T/C = larger tumour).

Regarding `O=CC(NC(=O)N(CCCl)N=O)C(O)C(O)C(O)CO` (stereo not given), where the note is “T/C endpoint: mean tumor weight, dose: 12.0 mg/kg/injection, schedule: Q02DX011 (ip), vehicle: saline, higher T/C = larger tumour”, the survivor count is listed as 6 of 10 on day 22. Further, the T/C was 128 % of control (T/C endpoint: median survival time, dose: 14.0 mg/kg/injection, schedule: Q01DX001 (ip), vehicle: saline, evaluated on day 17, higher T/C = longer survival) and 127 % of control (T/C endpoint: median survival time, dose: 14.0 mg/kg/injection, schedule: Q01DX001 (ip), vehicle: saline, evaluated on day 61, higher T/C = longer survival).

In the case of `COc1ccc(Cl)[n+]([O-])n1`, the survivor count (T/C endpoint: median survival time, dose: 200.0 mg/kg/injection, schedule: Q04DX003 (ip), vehicle: Klucel (hydroxypropylcellulose) (HPC), higher T/C = longer survival) is recorded as 0 of 10 on day 63 and the survivor count (T/C endpoint: median survival time, dose: 400.0 mg/kg/injection, schedule: Q04DX003 (ip), vehicle: Klucel (hydroxypropylcellulose) (HPC), higher T/C = longer survival) is given as 0 of 10 on day 63.

Take `O=C1c2ccccc2C(=O)c2c(NCCNCCO)ccc(NCCNCCO)c21`: the survivor count is 4 of 8 (T/C endpoint: median survival time, dose: 36.0 mg/kg/injection, schedule: Q04DX004 (iv), vehicle: saline, higher T/C = longer survival); 8 of 8 (T/C endpoint: median survival time, dose: 60.0 mg/kg/injection, schedule: Q04DX004 (ip), vehicle: saline, higher T/C = longer survival); 0 of 8 (T/C endpoint: median survival time, dose: 60.0 mg/kg/injection, schedule: Q04DX004 (iv), vehicle: saline, higher T/C = longer survival).

With `COC1CC23OC2(C1)C1C=CC3N(C(=O)OCC(Cl)(Cl)Cl)N1C(=O)OCC(Cl)(Cl)Cl` (stereo not given), under “T/C endpoint: median tumor weight (est.), dose: 200.0 mg/kg/injection, schedule: Q01DX009 (ip), vehicle: saline with Tween-80, evaluated on day 20, higher T/C = larger tumour”, the T/C is 126 % of control.

Turning to `NCCc1ccc(O)c(O)c1`, for the setting “T/C endpoint: median survival time, dose: 400.0 mg/kg/injection, schedule: Q02DX030 (ip), vehicle: saline, higher T/C = longer survival”, the survivor count was 10 of 10 on day 16.

As for `C[C@@]12C(=O)OC(=O)[C@]1(C)[C@H]1CC[C@@H]2O1`, the survivor count is recorded as 0 of 10 on day 9 (T/C endpoint: median survival time, dose: 1.6 mg/kg/injection, schedule: Q01DX009 (ip), vehicle: acetone, higher T/C = longer survival) and 0 of 10 on day 20 (T/C endpoint: median tumor weight (est.), dose: 1.6 mg/kg/injection, schedule: Q01DX009 (ip), vehicle: acetone, higher T/C = larger tumour).
